## Cleaved PARP after 72 h of treatment

All values are for the listed drug together with pioglitazone (10 µM): CCc1ccc(CCOc2ccc(CC3SC(=O)NC3=O)cc2)nc1 (stereo unspecified)

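Human melanoma cell lines in 1,536-well plates were treated with two drugs together for 72 h, then fixed, stained and imaged. Each value is the cleaved-PARP-positive fraction of nuclei relative to DMSO-treated wells, in %, so that 100 equals the control and higher values mean more apoptosis. Concentrations were fixed for each drug; these are the higher of two levels. No replicate spread is given; individual values may be noisy. The marker varies much from line to line, for technical or biological reasons.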
Only some of the drugs and lines screened are listed, without regard to their results.

Second drug	UACC-62
O=C1NC(=O)/C(=C/c2ccc(-c3ccc(F)cc3O)o2)S1 at 5 µM	101
Cn1nnc2c(C(N)=O)ncn2c1=O at 10 µM	172
CCCCCCCCCCCC1=C(O)C(=O)C=C(O)C1=O at 6 µM	46.9
O=C(O)c1ccc(-c2c[nH]c3ncc(-c4ccccc4)cc23)cc1C1CCCC1 at 0.8 µM	117
CCCCCCCCc1ccc(CCC(N)(CO)CO)cc1 at 10 µM	386
CC(=O)O[C@@]12CO[C@@H]1C[C@H](O)[C@@]1(C)C(=O)[C@H](O)C3=C(C)[C@@H](OC(=O)[C@H](O)[C@@H](NC(=O)OC(C)(C)C)c4ccccc4)C[C@@](O)([C@@H](OC(=O)c4ccccc4)[C@H]21)C3(C)C at 0.0005 µM	302
Cc1cc([N+](=O)[O-])ccc1NS(=O)(=O)c1cc(Cl)ccc1Cl at 5 µM	30.2
Cn1cncc1[C@@](N)(c1ccc(Cl)cc1)c1ccc2c(c1)c(-c1cccc(Cl)c1)cc(=O)n2C at 0.05 µM	22.3
Cc1cc(SCc2sc(-c3ccc(C(F)(F)F)c(F)c3)nc2C)ccc1OCC(=O)O at 10 µM	209
O=c1[nH]nc(Sc2ncc([N+](=O)[O-])s2)n1-c1ccc2c(c1)OCCO2 at 1 µM	154
Clc1ccc(Nc2nnc(Cc3ccncc3)c3ccccc23)cc1 at 10 µM	294
CC[C@]1(O)C[C@H]2CN(CCc3c([nH]c4ccccc34)[C@@](C(=O)OC)(c3cc4c(cc3OC)N(C=O)[C@H]3[C@@](O)(C(=O)OC)[C@H](OC(C)=O)[C@]5(CC)C=CCN6CC[C@]43[C@@H]65)C2)C1 at 0.0005 µM	502
COc1cc(N2CCC(N3CCN(C)CC3)CC2)ccc1Nc1ncc(Cl)c(Nc2ccccc2S(=O)(=O)C(C)C)n1 at 0.4 µM	114
O=C(Nc1cccc(Cl)c1)Nc1ncc(CCNc2ncnc3ccsc23)s1 at 0.004 µM	158
CN(NC(=O)CC(=O)NN(C)C(=S)c1ccccc1)C(=S)c1ccccc1 at 0.03 µM	144
C=C(c1ccc(C(=O)O)cc1)c1cc2c(cc1C)C(C)(C)CCC2(C)C at 10 µM	151
Cc1cc(N2CCOCC2)cc2[nH]c(-c3c(NC[C@@H](O)c4cccc(Cl)c4)cc[nH]c3=O)nc12 at 1 µM	42.2
NC(=O)c1ccc(N(C(N)=O)c2c(F)cccc2F)nc1-c1ccc(F)cc1F at 2 µM	194
OCc1c[nH]c2ccccc12 at 4 µM	69.4
Cn1cc(/C=C2\C(=O)Nc3cccnc32)c2ccccc21 at 2 µM	197
CS(=O)(=O)c1ccc(C(=O)Nc2ccc(Cl)c(-c3ccccn3)c2)c(Cl)c1 at 5 µM	140
Cc1cn(-c2cc(NC(=O)c3ccc(C)c(Nc4nccc(-c5cccnc5)n4)c3)cc(C(F)(F)F)c2)cn1 at 1 µM	157
COc1cc(Nc2ncc(F)c(Nc3ccc4c(n3)NC(=O)C(C)(C)O4)n2)cc(OC)c1OC at 2 µM	111
Nc1ncn([C@H]2C[C@H](O)[C@@H](CO)O2)c(=O)n1 at 0.5 µM	297
Cn1c(Nc2ccc(C(F)(F)F)cc2)nc2cc(Oc3ccnc(-c4ncc(C(F)(F)F)[nH]4)c3)ccc21 at 0.4 µM	675
COc1cc([C@@H]2c3cc4c(cc3[C@@H](O[C@@H]3O[C@@H]5CO[C@@H](C)O[C@H]5[C@H](O)[C@H]3O)[C@H]3COC(=O)[C@H]23)OCO4)cc(OC)c1O at 0.1 µM	260
C=CCn1c(=O)c2cnc(Nc3ccc(N4CCN(C)CC4)cc3)nc2n1-c1cccc(C(C)(C)O)n1 at 0.1 µM	141
C[C@@H](Oc1cc(-c2cnn(C3CCNCC3)c2)cnc1N)c1c(Cl)ccc(F)c1Cl at 1 µM	112
CCN(CC)CCCCNc1ncc2cc(-c3cc(OC)cc(OC)c3)c(NC(=O)NC(C)(C)C)nc2n1 at 0.5 µM	93.2
N#CC[C@H](C1CCCC1)n1cc(-c2ncnc3[nH]ccc23)cn1 at 5 µM	104
Oc1cc(-c2nc(-c3ccccc3)[nH]c2-c2ccncc2)ccc1Cl at 1 µM	80.2

Some entries from above, unchanged:

| Second drug | UACC-62 |
|---|---|
| Nc1ncn([C@H]2C[C@H](O)[C@@H](CO)O2)c(=O)n1 at 0.5 µM | 297 |
| Cc1cc([N+](=O)[O-])ccc1NS(=O)(=O)c1cc(Cl)ccc1Cl at 5 µM | 30.2 |
| Cn1cncc1[C@@](N)(c1ccc(Cl)cc1)c1ccc2c(c1)c(-c1cccc(Cl)c1)cc(=O)n2C at 0.05 µM | 22.3 |

From a melanoma drug combination screen (doi:10.1371/journal.pone.0140310); values rounded.